Results taken from the supplement of paper PMC10849652.
The list shows a part of the results.

Chains of the proteins cited; added tags and fusions are not shown. Lines headed by an entry give the natural chain unless they say otherwise; changes in a name come on top.
UniProt O94927: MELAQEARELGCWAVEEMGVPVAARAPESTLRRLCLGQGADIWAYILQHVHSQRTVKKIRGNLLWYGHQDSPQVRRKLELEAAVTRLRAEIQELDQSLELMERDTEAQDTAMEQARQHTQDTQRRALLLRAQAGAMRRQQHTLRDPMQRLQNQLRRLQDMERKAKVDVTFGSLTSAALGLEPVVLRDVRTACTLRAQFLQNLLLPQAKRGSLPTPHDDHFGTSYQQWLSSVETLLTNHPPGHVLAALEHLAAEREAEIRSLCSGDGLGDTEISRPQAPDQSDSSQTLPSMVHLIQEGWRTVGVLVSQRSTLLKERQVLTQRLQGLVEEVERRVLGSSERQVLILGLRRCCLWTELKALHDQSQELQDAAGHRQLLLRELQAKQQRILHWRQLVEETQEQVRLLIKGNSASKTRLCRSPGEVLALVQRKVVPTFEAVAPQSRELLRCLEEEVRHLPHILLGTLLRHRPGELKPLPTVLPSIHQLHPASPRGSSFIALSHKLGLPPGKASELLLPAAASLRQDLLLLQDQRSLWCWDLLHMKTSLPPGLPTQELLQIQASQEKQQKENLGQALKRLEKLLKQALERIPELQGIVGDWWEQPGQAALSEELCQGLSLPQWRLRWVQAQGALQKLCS
UniProt Q9Y450, whole entry, looked up: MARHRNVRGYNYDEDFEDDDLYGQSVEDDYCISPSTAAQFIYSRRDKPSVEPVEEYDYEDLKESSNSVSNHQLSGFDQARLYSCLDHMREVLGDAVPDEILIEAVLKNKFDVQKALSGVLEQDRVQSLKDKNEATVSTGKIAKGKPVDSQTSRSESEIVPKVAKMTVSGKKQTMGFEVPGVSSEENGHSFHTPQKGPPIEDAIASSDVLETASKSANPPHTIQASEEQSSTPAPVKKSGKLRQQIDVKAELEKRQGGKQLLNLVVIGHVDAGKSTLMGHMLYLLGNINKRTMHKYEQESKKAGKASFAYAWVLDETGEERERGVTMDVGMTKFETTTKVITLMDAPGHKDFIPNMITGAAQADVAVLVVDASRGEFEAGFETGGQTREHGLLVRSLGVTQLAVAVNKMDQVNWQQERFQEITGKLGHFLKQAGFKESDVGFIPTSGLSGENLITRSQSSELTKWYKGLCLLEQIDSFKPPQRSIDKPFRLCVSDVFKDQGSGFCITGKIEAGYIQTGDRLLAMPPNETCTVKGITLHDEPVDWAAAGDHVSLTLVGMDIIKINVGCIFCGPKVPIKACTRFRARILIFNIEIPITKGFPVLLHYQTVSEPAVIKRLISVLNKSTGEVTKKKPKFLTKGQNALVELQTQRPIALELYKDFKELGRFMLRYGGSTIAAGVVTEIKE
UniProt Q9P035: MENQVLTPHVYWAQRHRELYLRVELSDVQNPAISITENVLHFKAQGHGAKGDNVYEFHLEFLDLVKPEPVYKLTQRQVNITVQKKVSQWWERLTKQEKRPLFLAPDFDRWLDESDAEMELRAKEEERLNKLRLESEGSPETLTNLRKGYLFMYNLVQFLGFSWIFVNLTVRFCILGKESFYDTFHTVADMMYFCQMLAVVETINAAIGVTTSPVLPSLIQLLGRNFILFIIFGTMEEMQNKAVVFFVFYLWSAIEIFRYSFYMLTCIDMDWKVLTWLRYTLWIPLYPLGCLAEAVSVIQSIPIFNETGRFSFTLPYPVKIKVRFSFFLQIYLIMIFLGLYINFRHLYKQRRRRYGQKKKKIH
UniProt P14317: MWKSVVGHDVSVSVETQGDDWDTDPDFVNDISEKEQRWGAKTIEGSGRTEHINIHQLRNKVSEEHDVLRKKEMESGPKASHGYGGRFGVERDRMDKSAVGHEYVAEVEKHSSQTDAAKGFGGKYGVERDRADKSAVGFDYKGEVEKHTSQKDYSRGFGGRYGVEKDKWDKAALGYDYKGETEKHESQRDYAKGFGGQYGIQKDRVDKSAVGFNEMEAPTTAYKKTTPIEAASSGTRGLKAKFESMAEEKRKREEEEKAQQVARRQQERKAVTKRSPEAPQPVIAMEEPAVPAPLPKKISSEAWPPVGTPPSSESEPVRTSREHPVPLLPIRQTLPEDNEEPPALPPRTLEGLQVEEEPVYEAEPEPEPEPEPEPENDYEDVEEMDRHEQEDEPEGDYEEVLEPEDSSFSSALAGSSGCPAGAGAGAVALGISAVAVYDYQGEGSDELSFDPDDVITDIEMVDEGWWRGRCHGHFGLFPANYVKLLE
UniProt Q9BSH5: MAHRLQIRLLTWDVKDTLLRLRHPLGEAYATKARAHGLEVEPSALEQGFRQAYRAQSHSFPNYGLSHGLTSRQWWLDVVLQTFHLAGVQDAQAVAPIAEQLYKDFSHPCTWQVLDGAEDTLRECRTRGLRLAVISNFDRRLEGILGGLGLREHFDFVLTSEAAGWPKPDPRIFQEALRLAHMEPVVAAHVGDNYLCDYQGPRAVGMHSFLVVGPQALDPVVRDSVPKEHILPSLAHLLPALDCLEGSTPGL
UniProt P00390: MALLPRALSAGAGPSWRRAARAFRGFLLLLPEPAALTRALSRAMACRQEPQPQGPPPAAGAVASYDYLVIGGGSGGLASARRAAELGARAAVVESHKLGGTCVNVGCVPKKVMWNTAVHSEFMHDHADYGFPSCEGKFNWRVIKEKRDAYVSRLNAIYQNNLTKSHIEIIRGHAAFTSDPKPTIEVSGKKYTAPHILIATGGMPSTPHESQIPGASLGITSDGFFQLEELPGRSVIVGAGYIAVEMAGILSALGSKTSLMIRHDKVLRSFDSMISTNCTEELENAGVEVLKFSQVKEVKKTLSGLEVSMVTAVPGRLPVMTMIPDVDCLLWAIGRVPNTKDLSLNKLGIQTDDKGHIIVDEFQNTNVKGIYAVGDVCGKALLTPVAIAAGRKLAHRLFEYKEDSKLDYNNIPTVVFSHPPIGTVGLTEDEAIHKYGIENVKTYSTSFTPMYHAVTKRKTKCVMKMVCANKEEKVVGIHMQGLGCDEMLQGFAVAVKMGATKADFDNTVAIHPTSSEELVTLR
UniProt Q13889: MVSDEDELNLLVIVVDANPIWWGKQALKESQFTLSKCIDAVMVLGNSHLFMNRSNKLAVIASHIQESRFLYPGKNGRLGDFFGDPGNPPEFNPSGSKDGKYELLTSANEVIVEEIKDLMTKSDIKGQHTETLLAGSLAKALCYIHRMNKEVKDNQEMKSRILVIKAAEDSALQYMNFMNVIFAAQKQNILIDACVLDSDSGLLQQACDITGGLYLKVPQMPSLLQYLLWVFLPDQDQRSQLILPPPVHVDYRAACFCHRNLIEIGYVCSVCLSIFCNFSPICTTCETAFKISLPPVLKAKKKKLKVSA
UniProt P78347: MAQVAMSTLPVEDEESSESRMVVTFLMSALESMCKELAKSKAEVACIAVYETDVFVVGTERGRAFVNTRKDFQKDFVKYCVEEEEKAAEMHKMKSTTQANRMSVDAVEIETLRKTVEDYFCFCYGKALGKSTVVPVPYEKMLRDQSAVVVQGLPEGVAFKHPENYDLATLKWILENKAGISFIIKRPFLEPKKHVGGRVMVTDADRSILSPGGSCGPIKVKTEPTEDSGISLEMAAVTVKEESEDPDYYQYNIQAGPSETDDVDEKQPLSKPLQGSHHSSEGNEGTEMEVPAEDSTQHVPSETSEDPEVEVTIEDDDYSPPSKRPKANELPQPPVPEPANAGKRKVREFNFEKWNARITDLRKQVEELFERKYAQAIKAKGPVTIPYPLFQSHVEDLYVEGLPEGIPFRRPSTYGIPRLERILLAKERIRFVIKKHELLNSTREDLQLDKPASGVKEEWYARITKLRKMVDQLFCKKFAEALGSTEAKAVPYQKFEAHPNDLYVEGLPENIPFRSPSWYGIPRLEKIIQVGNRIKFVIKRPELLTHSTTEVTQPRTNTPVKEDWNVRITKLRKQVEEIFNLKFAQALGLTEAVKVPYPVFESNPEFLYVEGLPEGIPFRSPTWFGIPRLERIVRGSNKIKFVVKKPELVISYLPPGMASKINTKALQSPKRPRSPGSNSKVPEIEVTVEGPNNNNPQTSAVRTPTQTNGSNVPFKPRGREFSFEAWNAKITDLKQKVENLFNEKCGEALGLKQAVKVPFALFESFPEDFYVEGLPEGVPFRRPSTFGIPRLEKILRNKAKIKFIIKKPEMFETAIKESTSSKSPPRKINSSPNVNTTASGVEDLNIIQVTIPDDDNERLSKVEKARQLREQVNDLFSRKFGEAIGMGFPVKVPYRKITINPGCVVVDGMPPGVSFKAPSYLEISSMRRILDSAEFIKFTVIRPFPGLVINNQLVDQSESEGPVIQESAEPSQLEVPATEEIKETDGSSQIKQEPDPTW
UniProt O15379: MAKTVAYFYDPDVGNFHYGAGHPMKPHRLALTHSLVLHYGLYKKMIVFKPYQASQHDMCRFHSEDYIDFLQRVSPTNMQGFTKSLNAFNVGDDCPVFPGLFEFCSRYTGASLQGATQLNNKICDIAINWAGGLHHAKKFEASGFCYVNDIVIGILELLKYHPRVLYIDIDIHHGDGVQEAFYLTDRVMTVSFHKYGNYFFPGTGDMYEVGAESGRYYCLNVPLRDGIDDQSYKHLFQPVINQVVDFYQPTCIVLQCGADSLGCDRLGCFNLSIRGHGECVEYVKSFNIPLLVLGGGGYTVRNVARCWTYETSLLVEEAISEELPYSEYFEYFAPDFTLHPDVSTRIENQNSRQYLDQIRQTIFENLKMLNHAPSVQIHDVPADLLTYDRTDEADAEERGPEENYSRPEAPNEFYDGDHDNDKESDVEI
UniProt P04921: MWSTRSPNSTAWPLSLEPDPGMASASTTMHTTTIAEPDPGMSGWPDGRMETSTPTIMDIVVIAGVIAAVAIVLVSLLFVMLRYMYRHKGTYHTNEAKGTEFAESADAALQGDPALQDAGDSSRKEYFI
UniProt P13807: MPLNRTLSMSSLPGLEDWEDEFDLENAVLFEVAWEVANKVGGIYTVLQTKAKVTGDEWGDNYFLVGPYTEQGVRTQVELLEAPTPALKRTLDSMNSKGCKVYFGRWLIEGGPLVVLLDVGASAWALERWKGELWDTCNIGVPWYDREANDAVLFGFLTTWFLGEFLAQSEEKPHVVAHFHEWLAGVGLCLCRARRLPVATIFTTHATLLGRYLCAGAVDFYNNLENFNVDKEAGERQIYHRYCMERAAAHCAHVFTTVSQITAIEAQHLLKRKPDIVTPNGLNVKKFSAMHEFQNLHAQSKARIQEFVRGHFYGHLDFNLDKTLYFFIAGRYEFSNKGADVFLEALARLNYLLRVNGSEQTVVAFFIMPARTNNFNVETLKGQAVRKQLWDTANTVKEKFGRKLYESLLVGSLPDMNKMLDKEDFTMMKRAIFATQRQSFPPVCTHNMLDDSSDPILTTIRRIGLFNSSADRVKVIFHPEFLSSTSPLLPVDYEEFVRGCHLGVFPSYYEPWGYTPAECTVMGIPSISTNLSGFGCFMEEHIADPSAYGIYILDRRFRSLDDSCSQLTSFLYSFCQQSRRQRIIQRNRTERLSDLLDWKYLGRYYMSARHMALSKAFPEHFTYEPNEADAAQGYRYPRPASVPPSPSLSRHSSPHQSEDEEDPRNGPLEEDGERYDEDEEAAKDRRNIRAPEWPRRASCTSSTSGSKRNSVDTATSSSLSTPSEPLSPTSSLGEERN
UniProt P46976: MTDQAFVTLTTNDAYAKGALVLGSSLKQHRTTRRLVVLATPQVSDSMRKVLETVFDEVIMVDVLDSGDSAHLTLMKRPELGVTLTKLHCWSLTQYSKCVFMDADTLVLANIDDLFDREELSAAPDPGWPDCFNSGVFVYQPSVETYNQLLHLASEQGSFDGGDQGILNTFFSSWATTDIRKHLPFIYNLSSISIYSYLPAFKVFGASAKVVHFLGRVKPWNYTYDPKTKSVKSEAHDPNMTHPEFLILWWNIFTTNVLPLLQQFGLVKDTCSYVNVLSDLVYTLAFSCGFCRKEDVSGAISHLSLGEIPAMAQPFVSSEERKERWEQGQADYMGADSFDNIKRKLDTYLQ

Tests used:
Assay in all cases: log2 fold change, soluble protein after heating vs DMSO (PISA); higher = thermal stabilisation; K562 lysate, 10 uM; active = over 0.2 and 3.5 SD of the protein, either way, in both replicates (recomputed)
erlotinib = compound: C#Cc1cccc(Nc2ncnc3cc(OCCOC)c(OCCOC)cc23)c1 [erlotinib]
Procedure, shortened: (§1)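 Following dounce homogenisation of K562 pellets in PBS pH 7.4 with 1 mM MgCl2, crude extract at 1 mg/mL protein was incubated for 30 min with 10 μM compound. Aliquots were then heated for 3 min over 48°C-58°C and pooled, NP-40 was added to 0.5% at 4°C, and soluble protein was recovered as the supernatant at 21,000xg for 90 min. Channel-sum-equalised TMTpro 16plex LC-MS/MS quantified this protein. Each value, from duplicates, is a log-two fold change in thermal stability relative to solvent controls.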

[1] = compound: C/C(=N\NC(=O)C1=CC(=CC=C1)S(=O)(=O)N2CCOCC2)/C3=C(C=CC(=C3)Cl)O
Procedure, shortened: as §1

[2] = compound: C1=CC(=CC=C1C2=NC3=C(N2)C=C(C=C3)C(=O)N)OC4=CC=C(C=C4)Cl
Procedure, shortened: as §1

[3] = compound: C1=CC2=C(C=CC(=C2)/C=C\3/C(=O)NC(=NCC4=CC=CS4)S3)N=C1
Procedure, shortened: as §1

[4] = compound: C1=CC2=NC=CN=C2C=C1/C=C/3\C(=O)NC(=O)S3
Procedure, shortened: as §1

[5] = compound: C1=CC=C(C=C1)C2=NC(=C(N2)C3=CC=NC=C3)C4=CC(=C(C=C4)Cl)O
Procedure, shortened: as §1

[6] = compound: C1=CC=C2C(=C1)C3=NNC4=CC=CC(=C43)C2=O
Procedure, shortened: as §1

[7] = compound: C1CCN(C1)C(=O)NC2=CC=CC(=C2)NC3=NC=C(C(=N3)NCCC4=CN=CN4)Br
Procedure, shortened: as §1

[8] = compound: C1CN(CCC1(CC2=CC=C(C=C2)Cl)N)C3=NC=NC4=C3C=CN4
Procedure, shortened: as §1

IRAK-1-4 Inhibitor I = compound: C1COCCN1CCN2C3=CC=CC=C3N=C2NC(=O)C4=CC(=CC=C4)[N+](=O)[O-] [IRAK-1-4 Inhibitor I]
Procedure, shortened: as §1

ibrutinib = compound: C=CC(=O)N1CCC[C@@H](n2nc(-c3ccc(Oc4ccccc4)cc3)c3c(N)ncnc32)C1 [ibrutinib]
Procedure, shortened: as §1

[9] = compound: CC(=O)c1cnc2ccc(-c3cc(Cl)c(O)c(Cl)c3)nc2c1N[C@H]1CC[C@H](CN(C)C)CC1
Procedure, shortened: as §1

ralimetinib = compound: CC(C)(C)Cn1c(N)nc2ccc(-c3[nH]c(C(C)(C)C)nc3-c3ccc(F)cc3)nc21 [ralimetinib]
Procedure, shortened: as §1

[10] = compound: CC(C)(O)CC(=O)NCCn1ccc2ncnc(Nc3ccc(Oc4cccc(C(F)(F)F)c4)c(Cl)c3)c21
Procedure, shortened: as §1

[11] = compound: CC(C)C1=C2N=C(C=C(N2N=C1)NCC3=CC=CC=C3)NCCCCCCN
Procedure, shortened: as §1

[12] = compound: CC1=C(C(CC(=O)N1)C2=CC=C(C=C2)C(F)(F)F)C(=O)NC3=C(C=C4C(=C3)C=NN4)F
Procedure, shortened: as §1

[13] = compound: CC1=C(C2=C(C=C1)C(=O)C3=CC=CC=C3N2CCCN)C
Procedure, shortened: as §1

[14] = compound: CC1=C(C=C(C=C1)NC(=O)C2=CC(=CC=C2)C(C)(C)C#N)NC3=CC4=C(C=C3)N=CN(C4=O)C
Procedure, shortened: as §1

[15] = compound: CC1=C(C=C(C=C1)NC(=O)C2=CC(=CC=C2)N(C)C)NC(=O)C3=CC=C(C=C3)O
Procedure, shortened: as §1

[16] = compound: CC1=CC=C(C=C1)SC2=C3C=C(SC3=CN=C2)C(=O)N
Procedure, shortened: as §1

Measured: log2 fold change

HAUS6 (UniProt Q7Z4H7)
inactive: erlotinib 0.031 | [1] 0.102 | [2] -0.038 | [3] -0.035 | [4] -0.008 | [5] 0.019 | [6] 0.024 | [7] -0.015 | [8] 0.039 | IRAK-1-4 Inhibitor I 0.017 | ibrutinib 0.025 | [9] -0.054 | ralimetinib 0.027 | [10] -0.003 | [11] -0.015 | [12] 0.029 | [13] 0.01 | [14] -0.008 | [15] 0.073 | [16] 0.078

H4C1 (UniProt P62805)
inactive: erlotinib 0.065 | [1] 0.499 | [2] -0.023 | [3] -0.042 | [4] -0.024 | [5] 0.252 | [6] -0.008 | [7] 0.067 | [8] -0.052 | IRAK-1-4 Inhibitor I -0.067 | ibrutinib 0.055 | [9] -0.008 | ralimetinib -0.078 | [10] -0.037 | [11] -0.046 | [12] 0.075 | [13] -0.082 | [14] 0.011 | [15] -0.022 | [16] 0.008

HAUS5 (UniProt O94927)
inactive: erlotinib 0.046 | [1] 0.021 | [2] -0.071 | [3] -0.015 | [4] -0.045 | [5] -0.009 | [6] 0.113 | [7] 0.031 | [8] -0.017 | IRAK-1-4 Inhibitor I 0.033 | ibrutinib 0 | [9] 0.002 | ralimetinib 0.034 | [10] 0.017 | [11] 0.027 | [12] -0.027 | [13] 0 | [14] 0 | [15] 0.033 | [16] 0.021

2 successive entries already listed:
H4C1 (UniProt P62805)
inactive: erlotinib 0.065 | [1] 0.499 | [2] -0.023 | [3] -0.042 | [4] -0.024 | [5] 0.252 | [6] -0.008 | [7] 0.067 | [8] -0.052 | IRAK-1-4 Inhibitor I -0.067 | ibrutinib 0.055 | [9] -0.008 | ralimetinib -0.078 | [10] -0.037 | [11] -0.046 | [12] 0.075 | [13] -0.082 | [14] 0.011 | [15] -0.022 | [16] 0.008

HAUS5 (UniProt O94927)
inactive: erlotinib 0.046 | [1] 0.021 | [2] -0.071 | [3] -0.015 | [4] -0.045 | [5] -0.009 | [6] 0.113 | [7] 0.031 | [8] -0.017 | IRAK-1-4 Inhibitor I 0.033 | ibrutinib 0 | [9] 0.002 | ralimetinib 0.034 | [10] 0.017 | [11] 0.027 | [12] -0.027 | [13] 0 | [14] 0 | [15] 0.033 | [16] 0.021

Further results.

HBS1L isoform 2 (UniProt Q9Y450)
inactive: erlotinib 0.014 | [1] -0.052 | [2] 0.011 | [3] 0.033 | [4] -0.041 | [5] -0.008 | [6] -0.014 | [7] -0.002 | [8] 0.035 | IRAK-1-4 Inhibitor I 0.004 | ibrutinib 0.035 | [9] 0.002 | ralimetinib 0.03 | [10] -0.053 | [11] 0.018 | [12] 0.017 | [13] -0.012 | [14] 0.009 | [15] 0.028 | [16] 0.018

HACD3 (UniProt Q9P035)
inactive: erlotinib 0.013 | [1] 0.022 | [2] -0.101 | [3] 0.037 | [4] -0.029 | [5] 0.004 | [6] -0.049 | [7] -0.04 | [8] 0.021 | IRAK-1-4 Inhibitor I 0.027 | ibrutinib 0.013 | [9] -0.02 | ralimetinib 0 | [10] -0.085 | [11] 0 | [12] -0.019 | [13] 0 | [14] 0.027 | [15] -0.009 | [16] 0.019

HCLS1 (UniProt P14317)
inactive: erlotinib -0.049 | [1] 0.014 | [2] -0.001 | [3] 0.02 | [4] -0.001 | [5] 0.044 | [6] -0.009 | [7] 0.013 | [8] -0.021 | IRAK-1-4 Inhibitor I 0 | ibrutinib 0.078 | [9] -0.028 | ralimetinib -0.021 | [10] 0.004 | [11] -0.002 | [12] -0.02 | [13] 0.021 | [14] -0.026 | [15] 0.018 | [16] -0.019

HDLBP, A0A024R4E5
inactive: erlotinib 0.043 | [1] 0.008 | [2] 0.02 | [3] -0.001 | [4] -0.024 | [5] -0.001 | [6] -0.046 | [7] -0.003 | [8] 0.004 | IRAK-1-4 Inhibitor I -0.005 | ibrutinib -0.034 | [9] -0.007 | ralimetinib 0.029 | [10] -0.014 | [11] -0.012 | [12] 0.007 | [13] -0.004 | [14] -0.009 | [15] 0.042 | [16] 0.003

HDHD3 (UniProt Q9BSH5)
inactive: erlotinib 0.008 | [1] -0.005 | [2] 0.006 | [3] -0.003 | [4] 0.157 | [5] 0.011 | [6] 0.063 | [7] -0.005 | [8] -0.013 | IRAK-1-4 Inhibitor I 0.014 | ibrutinib 0.02 | [9] 0.01 | ralimetinib 0.002 | [10] -0.039 | [11] -0.05 | [12] -0.073 | [13] 0.027 | [14] 0.08 | [15] -0.042 | [16] 0.021

GSR (UniProt P00390)
inactive: erlotinib 0.014 | [1] -0.026 | [2] -0.008 | [3] 0.019 | [4] 0.049 | [5] -0.122 | [6] -0.016 | [7] 0.032 | [8] -0.019 | IRAK-1-4 Inhibitor I 0.044 | ibrutinib 0.032 | [9] -0.034 | ralimetinib 0.016 | [10] 0.024 | [11] -0.012 | [12] -0.049 | [13] -0.138 | [14] 0.019 | [15] -0.016 | [16] 0.022

GTF2H3 (UniProt Q13889)
inactive: erlotinib 0.056 | [1] -0.023 | [2] -0.076 | [3] -0.003 | [4] -0.065 | [5] 0.071 | [6] -0.021 | [7] -0.035 | [8] 0.031 | IRAK-1-4 Inhibitor I 0.096 | ibrutinib -0.012 | [9] 0.021 | ralimetinib -0.003 | [10] -0.045 | [11] -0.01 | [12] 0.033 | [13] -0.015 | [14] 0.023 | [15] 0.033 | [16] -0.021

GTF2I (UniProt P78347)
inactive: erlotinib -0.005 | [1] 0.016 | [2] -0.02 | [3] 0.018 | [4] 0.008 | [5] -0.003 | [6] -0.034 | [7] -0.002 | [8] -0.031 | IRAK-1-4 Inhibitor I -0.007 | ibrutinib -0.004 | [9] -0.002 | ralimetinib 0.007 | [10] -0.004 | [11] 0.012 | [12] -0.007 | [13] 0.005 | [14] -0.027 | [15] 0.033 | [16] -0.001

HEATR1 (UniProt Q9H583)
inactive: erlotinib 0.027 | [1] 0.01 | [2] -0.067 | [3] 0.096 | [4] 0.05 | [5] -0.013 | [6] -0.035 | [7] 0.007 | [8] 0.05 | IRAK-1-4 Inhibitor I -0.012 | ibrutinib -0.021 | [9] 0.009 | ralimetinib 0.026 | [10] 0.021 | [11] -0.034 | [12] 0.011 | [13] -0.032 | [14] 0.009 | [15] 0.037 | [16] -0.006

HDAC3 (UniProt O15379)
inactive: erlotinib 0.061 | [1] -0.035 | [2] 0.056 | [3] -0.008 | [4] -0.001 | [5] 0.01 | [6] 0.019 | [7] -0.017 | [8] 0.029 | IRAK-1-4 Inhibitor I 0.028 | ibrutinib -0.004 | [9] 0 | ralimetinib 0.043 | [10] 0.018 | [11] -0.029 | [12] -0.03 | [13] 0 | [14] -0.003 | [15] -0.082 | [16] -0.007

GYPC (UniProt P04921)
inactive: erlotinib 0.163 | [1] -0.135 | [2] -0.114 | [3] 0.082 | [4] -0.085 | [5] 0.129 | [6] -0.009 | [7] -0.013 | [8] 0.011 | IRAK-1-4 Inhibitor I 0.018 | ibrutinib 0.276 | [9] -0.052 | ralimetinib 0.078 | [10] -0.11 | [11] -0.111 | [12] 0.071 | [13] -0.001 | [14] 0.033 | [15] -0.071 | [16] 0.004

GYS1 (UniProt P13807)
inactive: erlotinib -0.033 | [1] 0.045 | [2] -0.006 | [3] -0.028 | [4] -0.012 | [5] -0.034 | [6] 0.145 | [7] -0.049 | [8] 0.004 | IRAK-1-4 Inhibitor I 0.018 | ibrutinib 0.062 | [9] -0.04 | ralimetinib 0.041 | [10] 0.012 | [11] -0.028 | [12] 0.002 | [13] 0.021 | [14] 0 | [15] 0.011 | [16] 0.005

GYG1 isoform 2 (UniProt P46976)
inactive: erlotinib 0.025 | [1] -0.05 | [2] 0.22 | [3] 0.051 | [4] 0 | [5] 0.027 | [6] 0.459 | [7] 0.009 | [8] -0.047 | IRAK-1-4 Inhibitor I 0.03 | ibrutinib -0.011 | [9] 0.007 | ralimetinib -0.039 | [10] -0.1 | [11] -0.091 | [12] -0.022 | [13] -0.054 | [14] -0.067 | [15] -0.041 | [16] 0.004
